The record followed here is doi:10.1101/495762 (bioRxiv, 2018).

In assay [1] the target is T1, Smc3(K38I, K198C)-HaloTag (S. cerevisiae) (UniProt P47037).
T1 sequence: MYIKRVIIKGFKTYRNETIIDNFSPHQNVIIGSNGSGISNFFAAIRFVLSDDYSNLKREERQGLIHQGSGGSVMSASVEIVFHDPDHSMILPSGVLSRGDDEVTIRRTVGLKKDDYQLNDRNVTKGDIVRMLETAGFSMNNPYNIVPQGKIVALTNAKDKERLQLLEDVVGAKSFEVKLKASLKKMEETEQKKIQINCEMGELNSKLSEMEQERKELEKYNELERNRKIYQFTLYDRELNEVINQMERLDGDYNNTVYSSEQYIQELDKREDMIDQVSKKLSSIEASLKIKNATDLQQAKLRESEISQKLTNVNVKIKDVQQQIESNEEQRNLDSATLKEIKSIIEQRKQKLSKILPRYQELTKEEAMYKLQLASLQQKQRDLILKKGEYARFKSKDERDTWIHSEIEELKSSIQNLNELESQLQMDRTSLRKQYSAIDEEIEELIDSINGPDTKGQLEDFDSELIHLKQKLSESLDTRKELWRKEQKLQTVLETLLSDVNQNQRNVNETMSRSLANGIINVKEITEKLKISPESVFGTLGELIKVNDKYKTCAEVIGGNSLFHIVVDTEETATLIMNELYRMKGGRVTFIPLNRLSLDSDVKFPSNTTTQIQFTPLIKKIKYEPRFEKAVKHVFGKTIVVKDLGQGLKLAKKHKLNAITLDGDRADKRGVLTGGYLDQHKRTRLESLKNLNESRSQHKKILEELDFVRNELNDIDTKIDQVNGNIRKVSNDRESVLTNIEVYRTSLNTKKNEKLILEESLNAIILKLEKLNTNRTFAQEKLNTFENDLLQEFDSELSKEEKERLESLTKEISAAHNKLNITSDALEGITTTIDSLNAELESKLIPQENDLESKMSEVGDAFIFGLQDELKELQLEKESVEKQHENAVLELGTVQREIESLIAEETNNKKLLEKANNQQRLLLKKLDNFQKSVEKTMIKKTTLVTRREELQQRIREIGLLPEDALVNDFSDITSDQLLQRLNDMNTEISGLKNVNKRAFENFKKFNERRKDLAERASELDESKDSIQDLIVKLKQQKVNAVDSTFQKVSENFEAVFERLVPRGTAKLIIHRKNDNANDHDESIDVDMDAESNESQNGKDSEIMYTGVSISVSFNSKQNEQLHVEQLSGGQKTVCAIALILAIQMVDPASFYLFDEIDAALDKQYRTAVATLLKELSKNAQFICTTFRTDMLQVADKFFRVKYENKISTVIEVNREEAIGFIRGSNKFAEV
Briefly: cross-linking.

In assay [2] the target is T2, Smc3(E570C)-HaloTag (S. cerevisiae) (UniProt P47037).
T2 sequence: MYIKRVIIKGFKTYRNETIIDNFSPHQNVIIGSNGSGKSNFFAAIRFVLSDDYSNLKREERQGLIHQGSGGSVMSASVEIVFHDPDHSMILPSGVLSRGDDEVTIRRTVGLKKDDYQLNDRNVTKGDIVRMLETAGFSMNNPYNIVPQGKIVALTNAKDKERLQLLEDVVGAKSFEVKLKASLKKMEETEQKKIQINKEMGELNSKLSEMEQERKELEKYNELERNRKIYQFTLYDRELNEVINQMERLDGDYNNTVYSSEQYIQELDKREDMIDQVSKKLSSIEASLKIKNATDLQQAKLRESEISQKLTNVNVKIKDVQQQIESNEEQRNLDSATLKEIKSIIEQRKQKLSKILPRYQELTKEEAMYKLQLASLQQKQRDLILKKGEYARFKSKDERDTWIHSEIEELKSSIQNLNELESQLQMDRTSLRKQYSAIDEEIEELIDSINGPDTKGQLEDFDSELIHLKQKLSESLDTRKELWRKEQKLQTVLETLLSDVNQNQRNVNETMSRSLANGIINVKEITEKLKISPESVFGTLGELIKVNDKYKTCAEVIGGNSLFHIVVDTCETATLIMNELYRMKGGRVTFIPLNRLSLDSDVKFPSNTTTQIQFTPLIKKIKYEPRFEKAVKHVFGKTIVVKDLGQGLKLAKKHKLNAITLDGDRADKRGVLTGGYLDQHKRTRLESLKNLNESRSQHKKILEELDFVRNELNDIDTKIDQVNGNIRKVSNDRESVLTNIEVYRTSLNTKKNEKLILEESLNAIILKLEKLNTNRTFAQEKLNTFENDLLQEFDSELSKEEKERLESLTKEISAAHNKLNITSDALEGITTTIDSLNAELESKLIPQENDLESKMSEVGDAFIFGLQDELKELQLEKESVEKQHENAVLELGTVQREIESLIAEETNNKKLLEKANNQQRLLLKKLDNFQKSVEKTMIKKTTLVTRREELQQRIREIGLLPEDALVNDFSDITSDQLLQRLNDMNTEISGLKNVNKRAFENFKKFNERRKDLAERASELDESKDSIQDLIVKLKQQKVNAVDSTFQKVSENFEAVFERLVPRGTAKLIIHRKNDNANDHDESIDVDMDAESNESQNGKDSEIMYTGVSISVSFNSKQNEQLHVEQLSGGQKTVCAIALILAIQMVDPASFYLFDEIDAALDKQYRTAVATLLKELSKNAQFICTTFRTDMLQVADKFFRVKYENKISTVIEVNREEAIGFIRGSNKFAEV
Briefly: cross-linking.

No constants are given. Whether binding was seen depends on the method and setting. In cells and extracts the contact can be indirect. Some binding calls cover weakened binding; strength is not graded here. Sequences can lack the tags named with a protein.

B1: Smc1(K201C) (protein, UniProt P32908 1-1225)
chain: MGRLVGLELSNFKSYRGVTKVGFGESNFTSIIGPNGSGKSNMMDAISFVLGVRSNHLRSNILKDLIYRGVLNDENSDDYDNEGAASSNPQSAYVKAFYQKGNKLVELMRIISRNGDTSYKIDGKTVSYKDYSIFLENENILIKAKNFLVFQGDVEQIAAQSPVELSRMFEEVSGSIQYKKEYEELKEKIEKLSKSATESICNRRRIHGELKTYKEGINKNEEYRKQLDKKNELQKFQALWQLYHLEQQKEELTDKLSALNSEISSLKGKINNEMKSLQRSKSSFVKESAVISKQKSKLDYIFKDKEKLVSDLRLIKVPQQAAGKRISHIEKRIESLQKDLQRQKTYVERFETQLKVVTRSKEAFEEEIKQSARNYDKFKLNENDLKTYNCLHEKYLTEGGSILEEKIAVLNNDKREIQEELERFNKRADISKRRITEELSITGEKLDTQLNDLRVSLNEKNALHTERLHELKKLQSDIESANNQEYDLNFKLRETLVKIDDLSANQRETMKERKLRENIAMLKRFFPGVKGLVHDLCHPKKEKYGLAVSTILGKNFDSVIVENLTVAQECIAFLKKQRAGTASFIPLDTIETELPTLSLPDSQDYILSINAIDYEPEYEKAMQYVCGDSIICNTLNIAKDLKWKKGIRGKLVTIEGALIHKAGLMTGGISGDANNRWDKEEYQSLMSLKDKLLIQIDELSNGQRSNSIRAREVENSVSLLNSDIANLRTQVTQQKRSLDENRLEIKYHNDLIEKEIQPKITELKKKLDDLENTKDNLVKEKEALQNNIFKEFTSKIGFTIKEYENHSGELMRQQSKELQQLQKQILTVENKLQFETDRLSTTQRRYEKAQKDLENAQVEMKSLEEQEYAIEMKIGSIESKLEEHKNHLDELQKKFVTKQSELNSSEDILEDMNSNLQVLKRERDGIKEDIEKFDLERVTALKNCKISNINIPISSETTIDDLPISSTDNEAITISNSIDINYKGLPKKYKENNTDSARKELEQKIHEVEEILNELQPNARALERYDEAEGRFEVINNETEQLKAEEKKILNQFLKIKKKRKELFEKTFDYVSDHLDAIYRELTKNPNSNVELAGGNASLTIEDEDEPFNAGIKYHATPPLKRFKDMEYLSGGEKTVAALALLFAINSYQPSPFFVLDEVDAALDITNVQRIAAYIRRHRNPDLQFIVISLKNTMFEKSDALVGVYRQQQENSSKIITLDLSNYAE
For B1, the binding entry in assay [1] is listed as “binds”.

B2: Smc1(K639C) (protein, UniProt P32908 1-1225)
chain: MGRLVGLELSNFKSYRGVTKVGFGESNFTSIIGPNGSGKSNMMDAISFVLGVRSNHLRSNILKDLIYRGVLNDENSDDYDNEGAASSNPQSAYVKAFYQKGNKLVELMRIISRNGDTSYKIDGKTVSYKDYSIFLENENILIKAKNFLVFQGDVEQIAAQSPVELSRMFEEVSGSIQYKKEYEELKEKIEKLSKSATESIKNRRRIHGELKTYKEGINKNEEYRKQLDKKNELQKFQALWQLYHLEQQKEELTDKLSALNSEISSLKGKINNEMKSLQRSKSSFVKESAVISKQKSKLDYIFKDKEKLVSDLRLIKVPQQAAGKRISHIEKRIESLQKDLQRQKTYVERFETQLKVVTRSKEAFEEEIKQSARNYDKFKLNENDLKTYNCLHEKYLTEGGSILEEKIAVLNNDKREIQEELERFNKRADISKRRITEELSITGEKLDTQLNDLRVSLNEKNALHTERLHELKKLQSDIESANNQEYDLNFKLRETLVKIDDLSANQRETMKERKLRENIAMLKRFFPGVKGLVHDLCHPKKEKYGLAVSTILGKNFDSVIVENLTVAQECIAFLKKQRAGTASFIPLDTIETELPTLSLPDSQDYILSINAIDYEPEYEKAMQYVCGDSIICNTLNIACDLKWKKGIRGKLVTIEGALIHKAGLMTGGISGDANNRWDKEEYQSLMSLKDKLLIQIDELSNGQRSNSIRAREVENSVSLLNSDIANLRTQVTQQKRSLDENRLEIKYHNDLIEKEIQPKITELKKKLDDLENTKDNLVKEKEALQNNIFKEFTSKIGFTIKEYENHSGELMRQQSKELQQLQKQILTVENKLQFETDRLSTTQRRYEKAQKDLENAQVEMKSLEEQEYAIEMKIGSIESKLEEHKNHLDELQKKFVTKQSELNSSEDILEDMNSNLQVLKRERDGIKEDIEKFDLERVTALKNCKISNINIPISSETTIDDLPISSTDNEAITISNSIDINYKGLPKKYKENNTDSARKELEQKIHEVEEILNELQPNARALERYDEAEGRFEVINNETEQLKAEEKKILNQFLKIKKKRKELFEKTFDYVSDHLDAIYRELTKNPNSNVELAGGNASLTIEDEDEPFNAGIKYHATPPLKRFKDMEYLSGGEKTVAALALLFAINSYQPSPFFVLDEVDAALDITNVQRIAAYIRRHRNPDLQFIVISLKNTMFEKSDALVGVYRQQQENSSKIITLDLSNYAE
As for B2, the binding result in assay [2] is “binds”.
